Measurements from patent US20130116251A1, “Novel HSP90 Inhibitor” (Nippon Kayaku Kabushiki Kaisha, priority 2005, published 2013).
At least one compound was matched to its structure with a doubt left.

Molecular target: rHSP90
Assay: HSP90 binding assay (BIACORE SPR; inhibition of binding between rHSP90 and fixed herbimycin A)
Conditions: concentration inhibiting binding between rHSP90 (50 μg/mL) and fixed herbimycin A by 50%, BIACORE-X SPR; read-out: HSP90 inhibitory activity IC50
From the text: The HSP90 binding assay system is a system for detecting the change of mass as SPR signal caused by the binding between herbimycin A fixed on a sensor chip and rHSP90 by BIACORE-X, in which 17-(6-amino hexylamino)herbimycin A is fixed through a carboxyl group on the surface of the sensor chip (CM5, BIACORE) on which carboxymethyldextran has been introduced. The method was according to the protocol of BIACORE. In addition, 17-(6-aminohexylamino)herbimycin A was synthesizes as described below.
rHSP90 (Stressgen Biotechnologies Corp., Victoria, BC Canada) at 50 μg/mL was exposed for 10 seconds to the surface of the sensor chip on which herbimycin A was fixed and the SPR signal (numerical value of interaction) was detected.
After mixing rHSP90 protein (5×10^−7M (50 μg/mL)) with the triazole derivative of the present invention, the mixture was exposed for 10 seconds to the surface of the sensor chip on which herbimycin A was fixed, and the SPR signal was measured by BIACORE-X.
Next, using following formula (1), the inhibitory activity (binding inhibition rate (%)) of the compound of the present invention to the binding between rHSP90 and fixed herbimycin A was obtained.
binding inhibition rate(%)=((b−s)/b)×100 Formula (1)
wherein b is the SPR signal when the compound of the present invention is not added to the sample: s is the SPR signal when the compound of the present invention is added to the sample.

Structure (SMILES)	IC50 [nM]
COc1ccc(-n2c(SC)nnc2-c2cc(C(C)C)c(O)cc2O)cc1 [SMe-a08, 4-isopropyl-6-[4-(4-methoxy-phenyl)-5-methylsulfanyl-4H-[1,2,4]triazol-3-yl]-benzene-1,3-diol]	590
Oc1cc(O)c(-c2n[nH]c(=S)n2-c2ccc(N3CCOCC3)cc2)cc1Br [SH-d01, 4-bromo-6-{5-mercapto-4-[4-(morpholin-4-yl)-phenyl]-4H-[1,2,4]triazol-3-yl}-benzene-1,3-diol]	150
CC(C)c1cc(-c2nnc(S(C)(=O)=O)n2CCN2CCOCC2)c(O)cc1O [SFN-a26, 4-isopropyl-6-[5-methanesulfonyl-4-(2-molpholin-4-ylethyl)-4H-[1,2,4]triazol-3-yl]-benzene-1,3-diol]	3400
COc1ccc(-n2c(-c3cc(C(C)C)c(O)cc3O)n[nH]c2=O)cc1OC [OH-a10, 5-(2,4-dihydroxy-5-isopropyl-phenyl)-4-(3,4-dimethoxy-phenyl)-2,4-dihydro-[1,2,4]triazol-3-one]	210
